In PMC12123085:
Results are given in words; binding and its absence hold for the method and conditions named. In cells and extracts the contact can be indirect. Some entries that bind do so weakly or less than the wild type.

Protein sequences, listed by entry. Tags and fused reporters are not part of them.
UniProt Q9Z2L0: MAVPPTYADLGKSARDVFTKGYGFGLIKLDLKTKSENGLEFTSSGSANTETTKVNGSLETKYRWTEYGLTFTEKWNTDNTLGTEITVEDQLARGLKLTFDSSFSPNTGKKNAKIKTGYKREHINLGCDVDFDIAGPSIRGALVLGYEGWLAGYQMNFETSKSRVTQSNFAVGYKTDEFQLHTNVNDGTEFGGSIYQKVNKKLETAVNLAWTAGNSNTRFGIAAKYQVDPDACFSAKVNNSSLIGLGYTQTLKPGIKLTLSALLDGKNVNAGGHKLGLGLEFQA

What was measured:
[1] = target: Mitochondrial calcium uptake 3 (MICU3) (rat (endogenous in rat neutrophils)); assay: proximity ligation; fixed, permeabilised cell or tissue slices; primary antibodies against VDAC1 and MICU3, plus/minus PLA probes, fluorescence microscopy
[2] = target: Mitochondrial calcium uptake 3 (MICU3) (rat (endogenous in rat neutrophils)); assay: co-IP; IP with MICU3 antibody (3 ug, 1 mg protein, Protein A/G magnetic beads, rabbit IgG as negative control), Western blot; neutrophils from the Sham and MIRI groups

binding [1]: binds
binding [2]: binds
Substance: VDAC1 (from UniProt Q9Z2L0 1-283)
